# Experimental data taken from PMC11302733 (Microbiology Spectrum, 2024).
# Test: general procedure: Fmoc solid-phase peptide synthesis; rink amide 4-methylbenzhydrylamine resin (0.59 meq/g)
# Details: whole synthesis, RP-HPLC, Jupiter C18, 214 and 280 nm
row,Substance,crude HPLC purity
1,GFLDVIKHVGKAALSVVSHLINE-NH2,41%
2,GFLDIVKGVGKVALGAVSKLF-NH2,56%
3,GFLDVLKGVGKAALGAVTHLINQ-NH2,85%
4,ASWKVFLKNIGKAAGKAVLNSVTDMVNQ-NH2,33%
5,GFLDTLKNIGKTVGRIALNVLT-NH2,42%
